Experimental data reported in PubChem BioAssay AID504444 (National Center for Advancing Translational Sciences (NCATS), 2011).
Screen size: about 360,000 compounds; about 7,500 (2.1%) were called active. The shares of active, inactive and inconclusive entries below differ from those in the screen. Calls follow the shape of the dose curve; as a rule, active = well fitted inhibition curve with a large enough effect; inconclusive = small, poorly fitted or top-dose-only effect, or effect the other way; inactive = flat fitted curve, though single readings scatter. Potencies of inconclusive entries are doubtful fits and often do not repeat.

test: Nrf2 qHTS screen for inhibitors; conditions: A549 ARE-Fluc reporter, luciferase luminescence, 18-24 h; series mostly up to 46 µM; also: nearly all actives have a fitted effect of over 60% in size
In short: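 Nrf2 function is reported as luminescence of an ARE-controlled luciferase in A549 cells. Compounds were tested at several concentrations, and a CellTiter-Fluor read on the same wells flagged cytotoxicity.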
Potency is read from the fitted curve at half-maximal effect.

SMILES | Potency
C=CCn1c(COc2ccc(F)cc2)nnc1SCC(=O)c1c[nH]c2c(CC)cccc12 | inactive
O=C(NC(=S)N1CCN(c2ccc(O)cc2)CC1)c1cccs1 | inconclusive: 25.9 µM [falling, single point]
C/C(=N\Nc1cccc2cccnc12)c1ccccc1O | inconclusive: 18.4 µM [activator, partial curve]
O=C(CSc1cccc[n+]1[O-])N1CCc2ccccc21 | inactive
CN1CC2(Cc3cc([N+](=O)[O-])ccc31)C(=O)OC(C)(C)OC2=O | inconclusive: 20.6 µM [activator, single point]
Cn1cnc([N+](=O)[O-])c1Oc1cccc(O)c1 | inactive
COc1cc(F)ccc1CN1CCC(C(=O)Nc2ccc(Oc3ccccc3)nc2)CC1 | inconclusive: 29.1 µM [falling, single point]
COc1ccc(NC(=O)c2ccc(-c3ccc(-c4noc(C)n4)cc3C)cc2)cc1N1CCN(C)CC1 | inconclusive: 36.6 µM [falling, partial curve, poor fit]
Cc1c(N2C(=O)c3ccc4c5c(ccc(c35)C2=O)CC4)c(=O)n(-c2ccccc2)n1C | inactive
CCC(C)(C)C1CCc2[nH]nc(C(=O)NCCCNC(=O)OC(C)(C)C)c2C1 (configuration not stated) | active: 25.9 µM
O=C1CCCC2=C1C1(CCCC1)N=C(Nc1nc3cc(Cl)ccc3o1)N2 | inconclusive: 29.1 µM [activator, single point]
Cc1cccc(C)c1NC(=O)c1cnn(-c2ccccc2)c1C | inconclusive: 2.59 µM [falling, full curve, poor fit]
COC(=O)CNC(=O)COC(=O)/C=C/c1ccc(F)cc1 | inconclusive: 29.1 µM [falling, single point]
N#Cc1ccccc1OCc1nnc(-c2ccccc2Br)o1 | inconclusive: 20.6 µM [activator, partial curve]
CCCc1[nH]c2ccc(C#N)cc2c1CCC | inconclusive: 29.1 µM [falling, single point]
CN(C)c1ccc(/C=N/NC(=O)c2ccco2)cc1 | inconclusive: 1.46 µM [activator, full curve]
Cc1cccc(-n2c(N)cc(=O)nc2SCC(=O)Nc2ccc(F)cc2)c1C | inactive
Cn1c(SCC(=O)Nc2nccs2)nnc1C1CC1 | inactive
Cc1ccc(S(=O)(=O)N2CCN(c3nn(C)c(=O)n(C)c3=O)CC2)cc1C | inconclusive: 13 µM [falling, partial curve, poor fit]
O=C(c1ccc(Cl)cc1)C1CCN(C(=O)c2ccccc2)CC1 | inconclusive: 29.1 µM [falling, single point]
Cc1cc(C(F)(F)F)c(C#N)c(SCC(=O)Nc2nc3cc(Br)ccc3s2)n1 | inconclusive: 29.1 µM [falling, single point]
Cc1cc2c3c(c1)C1(C(=O)N3C(C)(C)CC2C)C(C#N)=C(N)OC2=C1C(=O)CC(C)(C)C2 (configuration not stated) | inactive
CCc1nnc(NC(=O)c2ccc3ccccc3n2)s1 | inconclusive: 1.84 µM [activator, full curve, poor fit]

SMILES | Potency
O=C(Nc1ccc(S(=O)(=O)N2CCOCC2)cc1)c1ccc(S(=O)(=O)N2CCOCC2)cc1 | inconclusive: 25.9 µM [activator, single point]
CCOc1ccc(Cl)cc1CNCCCSc1nnnn1C | inactive
COc1cc(CCC(=O)Nc2ccc(C)c(S(=O)(=O)N(C)C)c2)cc(OC)c1OC | active: 23.1 µM
Cc1ccn2c(CN3CCOCC3)c(-c3ccccc3)nc2c1 | inconclusive: 5.17 µM [activator, full curve]
C/C(CC1CC2=C(CC1(C)C)C(C)(C)CCC2)=N\NC(N)=S (configuration not stated) | inconclusive: 25.9 µM [falling, single point]
CCc1ccc2c(CN3CCN(S(=O)(=O)c4ccccc4F)CC3)cc(=O)oc2c1 | inconclusive: 23.1 µM [falling, single point]
O=C(Nc1ccccn1)c1c(O)c2cccc3c2n(c1=O)CCC3 | inconclusive: 0.206 µM [activator, full curve, poor fit]
O=C(CN1C(=O)NC2(CCCCCC2)C1=O)Nc1ccc([N+](=O)[O-])cc1 | inactive
CC1(C)CC(=O)C2=C(C1)N(c1ccccc1)C(N)=C(C#N)C2c1cccnc1 (configuration not stated) | inactive
CCOC(=O)N1CCN(C(=O)c2ccccc2NC(=O)COc2ccccc2)CC1 | inconclusive: 29.1 µM [falling, single point]
CCOC(=O)CNc1c(-c2ccc(OC)cc2)nc2ccc(Cl)cn12 | inconclusive: 5.8 µM [activator, single point]
COCCNC(=S)N(CCc1c(C)[nH]c2ccc(F)cc12)Cc1ccc(C)cc1 | inconclusive: 29.1 µM [falling, single point]
CCc1sc(C(=O)Nc2ncccc2O)cc1C | inconclusive: 5.17 µM [activator, full curve]
Cc1ccc(C2CC2C(=O)NNC(=S)Nc2cccc(C)c2)cc1 (configuration not stated) | inconclusive: 25.9 µM [falling, single point]
Cc1ccc(NC(=O)NC(=O)N(c2ccccc2)S(C)(=O)=O)cc1 | inconclusive: 23.1 µM [activator, single point]
O=C(Nc1c2c(nn1-c1ccc(F)cc1)CS(=O)(=O)C2)C12CC3CC(CC(C3)C1)C2 | inactive
O=C(N/N=C/c1cccnc1)c1ccc(NC(=O)c2ccc(Cl)cc2)cc1 | inconclusive: 4.61 µM [falling, full curve]
O=C(Nc1nnc(C2=COCCO2)o1)c1cccc(Br)c1 | inconclusive: 14.6 µM [falling, single point]
O=C(Oc1c(Cl)cc(Cl)c2cccnc12)c1ccco1 | active: 23.1 µM
Cc1noc(N)c1C(=O)Nc1ccc(C(C)(C)C)cc1 | inconclusive: 18.4 µM [activator, partial curve]
CCN(CC)S(=O)(=O)c1ccc2c(c1)N(CC(=O)Nc1ccc(OC)cc1)C(=O)CS2 | inconclusive: 0.146 µM [activator, full curve, poor fit]
COc1nc(OC)nc(N2CCC(C(=O)NCC3CCCCC3)CC2)n1 | inactive
CC1(C)CC(=O)c2cc(C(=O)NC3CCSC3=O)c(=O)n(-c3ccccc3)c2C1 (configuration not stated) | inactive

SMILES | Potency
Cc1cc(C)cc(OCC(=O)Nc2ccc(N3CCN(C(=O)c4ccco4)CC3)cc2)c1 | inconclusive: 18.4 µM [falling, partial curve, poor fit]
COc1ccccc1CNC(=O)COC(=O)c1ccccn1 | inactive
CNC(=O)c1nnn(Cc2ccccc2)c1NC(=O)C(F)(F)F | inconclusive: 0.206 µM [falling, full curve, poor fit]
COc1ccc2[nH]c(=O)c(CN(C(=O)c3ccco3)C(C)C)cc2c1 | inconclusive: 18.4 µM [activator, partial curve]
CC(C)(C)c1ccc(C(=O)c2c[nH]c(C(=O)NCCCN3CCOCC3)c2)cc1 | inactive
COc1ccc2cc(/C=C/C(=O)N3CCN(CC(=O)N4CCCCCC4)CC3)ccc2c1 | active: 20.6 µM
Cc1cc(C(=O)COC(=O)c2ccc(O)cc2)c(C)n1CC1CCCO1 (configuration not stated) | inconclusive: 7.31 µM [activator, partial curve]
COc1cc(NC(=O)C2=C(N3CCOCC3)/C(=C/c3ccc(Cl)cc3)CC2)cc(OC)c1OC | inactive
C/C(=N\NC(=O)c1ccc(NS(=O)(=O)c2cccs2)cc1)c1ccc2c(c1)OCO2 | inconclusive: 9.2 µM [activator, partial curve]
CO[C@H]1/C=C/O[C@@]2(C)Oc3c(C)c(O)c4c(O)c(c(C=NN5CCN(C)CC5)c(O)c4c3C2=O)NC(=O)/C(C)=C\C=C\[C@H](C)[C@H](O)[C@@H](C)[C@@H](O)[C@@H](C)[C@H](OC(C)=O)[C@@H]1C | active: 4.11 µM
CCc1cc2c(=O)n(Cc3ccco3)c(SCC(=O)NCC3CCCO3)nc2s1 (configuration not stated) | inconclusive: 16.4 µM [falling, partial curve]
CCOc1ccc(-n2nc(CO)c(C(=O)NCc3ccccn3)n2)cc1 | inactive
CCOC(=O)C1=C(C)N(C)C(=S)NC1c1cc(OC)ccc1OC (configuration not stated) | inconclusive: 20.6 µM [falling, single point]
Cc1noc(C)c1COc1ccc(C(=O)Nc2cccnc2)cc1 | inconclusive: 6.51 µM [falling, full curve, poor fit]
CCN(CC)C(=O)[C@H]1C[C@H](CC(=O)NC(C)(C)C)C(=O)N2CCc3c([nH]c4ccc(Cl)cc34)[C@]12C | inactive
Cc1cccn2c(=O)c3cc(C(=O)NC4CCCCC4)n(C)c3nc12 | inconclusive: 1.46 µM [falling, partial curve]
Cc1cccnc1NC(=O)c1ccc(Cl)c(S(=O)(=O)N2CCCCCC2)c1 | inconclusive: 20.6 µM [falling, partial curve, poor fit]
CN(c1ccccc1)S(=O)(=O)c1cccc(NC(=O)CSc2nnc(C3CC3)n2C)c1 | inconclusive: 25.9 µM [falling, single point]
COc1ccc(Cn2c(C)nc3oc4cc(OC)ccc4c(=O)c3c2=O)cc1 | inconclusive: 4.61 µM [activator, full curve]
COc1ccc(CN(Cc2cccn2C)S(=O)(=O)c2ccc(F)cc2)cc1 | inconclusive: 18.4 µM [falling, partial curve, poor fit]
Cc1ccc(CN(C(=O)COc2ccccc2[N+](=O)[O-])c2ccccn2)cc1 | inconclusive: 3.66 µM [activator, partial curve]

An excerpt of these results, as comma-separated lines:
SMILES,Potency
Cc1ccc(NC(=O)NC(=O)N(c2ccccc2)S(C)(=O)=O)cc1,"inconclusive: 23.1 µM [activator, single point]"
O=C(Nc1c2c(nn1-c1ccc(F)cc1)CS(=O)(=O)C2)C12CC3CC(CC(C3)C1)C2,inactive
O=C(N/N=C/c1cccnc1)c1ccc(NC(=O)c2ccc(Cl)cc2)cc1,"inconclusive: 4.61 µM [falling, full curve]"
